# Results published in PubChem BioAssay AID330 (DTP/NCI, 2004).
# The list is a part of this screen's results and no random one: it gathers tests that were run many times, whatever their T/C, doses with no T/C, and many T/C values between a quarter and a half above the control. Other doses and runs of a compound stand elsewhere. T/C: endpoint of the treated group in % of that of the vehicle group. Some doses have a count of surviving animals in place of a T/C: the source holds a T/C of zero for them, seemingly a mark for toxic or unscored doses. Some survivor counts are full or nearly so, which does not show that the dose was tolerated: survival well below the control is almost never listed, so the zero probably covers shortened survival too. Counts of survivors are from the toxicity check (mostly the fifth day) where no day follows; animals may have died later. Schedules are NCI's codes, taken here to give the interval after Q, in days (D) or hours (H), and the number of doses after X. Marks such as (2×) stand for listed records that agree. Some entries were tested several times; their values stand side by side, smallest first. Where survival is the endpoint, this PubChem deposit counts one and a half times the control or more as active, and values a quarter to a half above the control carry no call in these data; other NCI protocols may use other cut-offs.
# Tested on: P388 leukemia ip, CD2F1 mice, survival T/C
# Test: NCI In Vivo Anticancer Drug Screen. Data for tumor model P388 Leukemia (intraperitoneal) in CD2F1 (CDF1) mice
# Settings: T/C endpoint: median survival time, higher T/C = longer survival
# [1] = dose: 200.0 mg/kg/injection, schedule: Q04DX003 (ip), vehicle: saline with Tween-80
# [2] = dose: 200.0 mg/kg/injection, schedule: Q01DX005 (ip), vehicle: saline with Tween-80
# [3] = dose: 5.0 mg/kg/injection, schedule: Q01DX009 (ip), vehicle: saline
# [4] = dose: 200.0 mg/kg/injection, schedule: Q01DX005 (ip), vehicle: Klucel (hydroxypropylcellulose) (HPC)
# [5] = dose: 200.0 mg/kg/injection, schedule: Q01DX009 (ip), vehicle: saline
# [6] = dose: 100.0 mg/kg/injection, schedule: Q01DX005 (ip), vehicle: saline with Tween-80
# [7] = dose: 400.0 mg/kg/injection, schedule: Q04DX003 (ip), vehicle: saline with Tween-80
compound,measurement,setting,value
C[N+](C)(C)CCC(=O)c1ccccc1,survivor count,"dose: 50.0 mg/kg/injection, schedule: Q01DX009 (ip), vehicle: Klucel (hydroxypropylcellulose) (HPC)",1 of 6 and 5 of 6
same,survivor count,"dose: 100.0 mg/kg/injection, schedule: Q01DX009 (ip), vehicle: Klucel (hydroxypropylcellulose) (HPC)",0 of 6
same,survivor count,"dose: 200.0 mg/kg/injection, schedule: Q01DX009 (ip), vehicle: Klucel (hydroxypropylcellulose) (HPC)",0 of 6
CCCCCCCCCC[N+](C)([O-])CCCCCC[N+](C)([O-])CCCCCCCCCC (centres undefined),survivor count,[1],0 of 6
CCC/C=C(\CC)COC(=O)Nc1ccccc1,survivor count,[2],5 of 5
O=CNC(Cc1ccccc1)C(=O)O (centres undefined),survivor count,[2],6 of 6
O=C1C=C2C=CC3CC2(O1)C1CCCCN31 (centres undefined),survivor count,"dose: 5.0 mg/kg/injection, schedule: Q01DX010 (ip), vehicle: saline",7 of 7
same,survivor count,"dose: 40.0 mg/kg/injection, schedule: Q01DX010 (ip), vehicle: saline",6 of 7
same,survivor count,"dose: 200.0 mg/kg/injection, schedule: Q01DX010 (ip), vehicle: saline",0 of 7 (2×)
c1cc[c]([Sn][c]2ccccc2)cc1,T/C,"dose: 1.25 mg/kg/injection, schedule: Q01DX009 (ip), vehicle: saline",137 and 145 % of control
same,T/C,"dose: 2.5 mg/kg/injection, schedule: Q01DX009 (ip), vehicle: saline",144 % of control
same,T/C,[3],145 % of control
same,survivor count,[3],1 of 6
same,survivor count,"dose: 10.0 mg/kg/injection, schedule: Q01DX009 (ip), vehicle: saline",1 of 6
O=C1c2ccccc2C(=O)N1OCc1csc(-c2ccccc2)n1,survivor count,[4],5 of 6
Cc1sc(C)c(CCl)c1CCl,T/C,"dose: 16.5 mg/kg/injection, schedule: Q01DX009 (ip), vehicle: saline with Tween-80",127 % of control
same,T/C,"dose: 25.0 mg/kg/injection, schedule: Q01DX009 (ip), vehicle: saline with Tween-80",127 % of control
C=C(Cl)C(=NC(C)(C)C)Nc1cccc(Cl)c1,survivor count,"dose: 50.0 mg/kg/injection, schedule: Q01DX005 (ip), vehicle: Klucel (hydroxypropylcellulose) (HPC)",4 of 5
same,survivor count,"dose: 100.0 mg/kg/injection, schedule: Q01DX005 (ip), vehicle: Klucel (hydroxypropylcellulose) (HPC)",1 of 5
same,survivor count,[4],1 of 5
CCOC(=O)c1ccc(NC(=O)CSc2nc3ccccc3o2)cc1,survivor count,[5],0 of 6
CC(=O)NC(Cc1cc(I)c(O)c(I)c1)C(=O)O (centres undefined),survivor count,"dose: 400.0 mg/kg/injection, schedule: Q01DX009 (ip), vehicle: saline",2 of 6
O=C(Nc1cc(Cl)c(Cl)cc1Cl)OCc1ccc2c(c1)OCO2,survivor count,"dose: 120.0 mg/kg/injection, schedule: Q01DX005 (ip), vehicle: saline with Tween-80",6 of 6
same,survivor count,"dose: 240.0 mg/kg/injection, schedule: Q01DX005 (ip), vehicle: saline with Tween-80",6 of 6
Nc1nc[nH]c1-c1noc(=O)[nH]1,survivor count,[5],0 of 6
Cc1cc(C(=O)Nc2ccc(NC3=NCCN3)cc2)cc(C(=O)Nc2ccc(NC3=NCCN3)cc2)c1,survivor count,"dose: 50.0 mg/kg/injection, schedule: Q01DX005 (ip), vehicle: saline with Tween-80",0 of 6
same,survivor count,[6],0 of 6
same,survivor count,[2],0 of 6
COC1=C2CCC3c4cc(OC)c(OC)cc4CC[N+]3=C2CC1 (centres undefined),survivor count,[4],2 of 6
CC(C)(C)SC(=O)C[Si](C)(C)C,survivor count,[7],6 of 6
CCCN(CCC)CC(C)(C)C(O)c1ccc(OC)c2ccccc12 (centres undefined),survivor count,[6],0 of 6
CN(C)c1ccc(N=Nc2ccc3cc4ccccc4cc3c2)cc1,survivor count,"dose: 100.0 mg/kg/injection, schedule: Q04DX003 (ip), vehicle: saline with Tween-80",1 of 6 and 3 of 6
same,survivor count,[1],2 of 6
same,survivor count,[7],0 of 6
